These are yes or no findings as the source states them, for the method shown. Binding seen in cells or lysates may run through a third protein. Here binding means that the protein was enriched with, or labelled near, the bait; the list need not be complete. Sequences can lack the tags named with a protein.
Target: T1, PAG1-FLAG (PAG1, subunit in the α-ring of the 20S core particle, with a C-terminal FLAG tag) (Arabidopsis thaliana) (UniProt O23715)
T1 sequence (chain, N-acetyl-L-serine (1)): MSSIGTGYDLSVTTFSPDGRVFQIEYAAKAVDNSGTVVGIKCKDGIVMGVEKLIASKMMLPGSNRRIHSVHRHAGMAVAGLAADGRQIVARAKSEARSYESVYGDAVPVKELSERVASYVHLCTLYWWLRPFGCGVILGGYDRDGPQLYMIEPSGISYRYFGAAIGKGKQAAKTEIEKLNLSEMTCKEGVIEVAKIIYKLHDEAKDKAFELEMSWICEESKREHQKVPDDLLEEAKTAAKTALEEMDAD
Assay: affinity purification with mass spectrometry; soluble extract of PAG1-FLAG Arabidopsis seedlings passed over anti-FLAG beads, washed with 800 mM NaCl, eluted with excess FLAG peptide; intact proteins identified by nanoLC UV-IF and top-down ETD/HCD MS/MS

Row | Binder | binding
1 | DSS1(I) (protein, UniProt Q9XIR8 1-74, N-acetyl-L-alanine (1)) MAAEPKAATAEVVKMDLFEDDDEFEEFEINEDWLEKEEVKEVSQQWEDDWDDDDVNDDFSRQLRKELENGTDKK | binds
2 | PBF1 (β6 subunit), N-terminally processed (protein, UniProt P42742 6-223) ANWSPYDNNGGTCVAIAGSDYCVIAADTRMSTGYSILSRDYSKIHKLADRAVLSSSGFQADVKALQKVLKSRHLIYQHQHNKQMSCPAMAQLLSNTLYFKRFFPYYAFNVLGGLDEEGKGCVFTYDAVGSYERVGYGAQGSGSTLIMPFLDNQLKSPSPLLLPKQDSNTPLSEAEAVDLVKTVFASATERDIYTGDKLEIMILKADGIKTELMDLRKD | binds
3 | PBE1 (β5 subunit isoform), N-terminally processed (protein, UniProt O23717 58-274) TTTLAFIFKGGVMVAADSRASMGGYISSQSVKKIIEINPYMLGTMAGGAADCQFWHRNLGIKCRLHELANKRRISVSGASKLLANMLYSYRGMGLSVGTMIAGWDETGPGLYYVDNEGGRLKGDRFSVGSGSPYAYGVLDSGYKYDMSVEEASELARRSIYHATFRDGASGGVASVYHVGPEGWTKLSGDDVGELHYHYYPVAPATAEQVMEEATAE | binds
4 | PBC1 (protein, UniProt Q9XI05 1-204, N-acetyl-L-serine (1)) MSIFEYNGSAVVAMVGKNCFAIASDRRLGVQLQTIATDFQRISKIHDRVFIGLSGLATDVQTLYQRLVFRHKLYQLREERDMKPETFASLVSAILYEKRFGPYLCQPVIAGLGDDDKPFICTMDSIGAKELAKDFVVSGTASESLYGACEAMYKPDMEAEELFETISQALLSSVDRDCLSGWGGHVYIVTPTEIKERILKGRMD | binds
5 | PBG1 (β7 subunit), N-terminally processed (protein, UniProt Q7DLR9 24-246) TLYPYVTGTSIVAIKYKDGVLMASDMGGSYGSTLRYKNIERVKAIGKHSLLGASGEISDFQEILRYLDELTLNDNMWDDGNSLGPKEIHNYLTRVMYNRRNKFNPLWNTLVLGGVKNGKSYLGMVSMIGVSFEDDHVATGFGNHLARPILRDEWHADLSFEDGVKLLEKCMRVLLYRDRSAINKLQIAKITEEGVTVSQPYSLKTYWEFSSFHNPTAGAAGSW | binds
6 | PBB1, N-terminally processed (protein, UniProt O23710 40-273) TTIVGLIFKDGVILGADTRATEGPIVADKNCEKIHYMAPNIYCCGAGTAADTEAVTDMVSSQLRLHRYQTGRDSRVITALTLLKKHLFSYQGHVSAALVLGGVDITGPHLHTIYPHGSTDTLPFATMGSGSLAAMSVFEAKYKEGLTRDEGIKLVAESICSGIFNDLGSGSNVDICVITKGNKEYLRNYMEPNPRTYVSSKGYSFTKKTEVLLTKITPLLERVEITEVGEAMEE | binds
7 | PBD1 (protein, UniProt O23714 1-204, N-acetyl-L-methionine (1)) MECVFGLVGNGFAIVAADTSAVHSILLHKNNEDKIMVLDSHKLVAASGEPGDRVQFTEYVQKNVSLYKFRNGIPLTTAAAANFTRGELATALRKNPYSVNILMAGYDDESGASLYYIDYIATLHKVDKGAFGYGSYFSLSTMDRHYRSDMSVEEAIELVDKCILEIRSRLVVAPPNFVIKIVDKDGARDYAWRQSVKDVTTAVV | binds
8 | PBE2 (β5 subunit isoform), N-terminally processed (protein, UniProt Q9LIP2 58-273) TTTLAFIFKEGVMVAADSRASMGGYISSQSVKKIIEINPYMLGTMAGGAADCQFWHRNLGIKCRLHELANKRRISVSGASKLLANMLYSYRGMGLSVGTMIAGWDETGPGLYYVDNEGGRLKGDRFSVGSGSPYAYGVLDSGYKFDMSVEEASELARRSIYHATFRDGASGGVASVYHVGPQGWTKLSGDDVGELHYHYYPVAPITAEHVMEEAAE | binds
9 | PBA1, N-terminally processed (protein, UniProt Q8LD27 13-233) TTIIGVTYNGGVVLGADSRTSTGMYVANRASDKITQLTDNVYVCRSGSAADSQVVSDYVRYFLHQHTIQHGQPATVKVSANLIRMLAYNNKNMLQTGLIVGGWDKYEGGKIYGIPLGGTVVEQPFAIGGSGSSYLYGFFDQAWKDNMTKEEAEQLVVKAVSLAIARDGASGGVVRTVIINSEGVTRNFYPGDKLQLWHEELEPQNSLLDILNAAGPEPMAM | binds
10 | PAB1 (protein, UniProt O23708 1-235, N-acetylglycine (1)) MGDSQYSFSLTTFSPSGKLVQIEHALTAVGSGQTSLGIKASNGVVIATEKKLPSILVDEASVQKIQHLTPNIGVVYSGMGPDFRVLVRKSRKQAEQYLRLYKEPIPVTQLVRETATVMQEFTQSGGVRPFGVSLLVAGYDDKGPQLYQVDPSGSYFSWKASAMGKNVSNAKTFLEKRYTEDMELDDAIHTAILTLKEGFEGEISSKNIEIGKIGADKVFRVLTPAEIDDYLAEVE | binds
11 | PAC1 (protein, UniProt O81148 1-250, N-acetyl-L-serine (1)) MSRRYDSRTTIFSPEGRLYQVEYAMEAIGNAGSAIGILSKDGVVLIGEKKVTSKLLQTSTSAEKMYKIDDHVACAVAGIMSDANILINTARVQAQRYTFMYQEPMPVEQLVQSLCDTKQGYTQFGGLRPFGVSFLFAGWDKHHGFQLYMSDPSGNYGGWKAAAVGANNQAAQSILKQDYKDDATREEAVELALKVLTKTMDSTSLTSEKLELAEVYLTPSKTVKYHVHSPESLTKLLVKHGVTQPAAETS | binds
12 | PAB2 (protein, UniProt Q8L4A7 1-235, N-acetylglycine (1)) MGDSQYSFSLTTFSPSGKLVQIEHALTAVGSGQTSLGIKASNGVVIATEKKLPSILVDEASVQKIQHLTPNIGTVYSGMGPDFRVLVRKSRKQAEQYLRLYKEPIPVTQLVRETATVMQEFTQSGGVRPFGVSLLVAGYDDKGPQLYQVDPSGSYFSWKASAMGKNVSNAKTFLEKRYTEDMELDDAIHTAILTLKEGFEGEISSKNIEIGKIGTDKVFRVLTPAEIDDYLAEVE | binds
13 | PBC2 (protein, UniProt O81153 1-204, N-acetyl-L-serine (1)) MSIFEYNGSAVVAMVGKNCFAIASDRRLGVQLQTIATDFQRISKIHDHLFIGLSGLATDVQTLYQRLVFRHKLYQLREERDMKPETFASLVSAILYEKRFGPFLCQPVIAGLGDDNKPFICTMDSIGAKELAKDFVVSGTASESLYGACEAMFKPDMEAEELFETISQALLSSVDRDCLSGWGGHVYVVTPKEVKERILKGRMD | binds
14 | PBB2, N-terminally processed (protein, UniProt Q7DLS1 40-274) TTIVGLIFKDGVILGADTRATEGPIVADKNCEKIHYMAPNIYCCGAGTAADTEAVTDMVSSQLRLHRYQTGRDSRVVTALTLLKKHLFSYQGHVSAALVLGGVDITGPHLHTIYPHGSTDTLPFATMGSGSLAAMSVFEAKYKEGLTRDEGIKLVAEAICSGIFNDLGSGSNVDICVITKGHKEYLRNYMEPNPRTYVSSKGYSFTKKTEVLLTKITPLLERVEIVEVAGEAMEE | binds
15 | RPP2B (protein, UniProt Q9SLF7 1-115, O-phospho-L-serine (105)) MKVVAAYLLAVLSGKASPTSADIKTILGSVGAETEDSQIELLLKEVKGKDLAELIAAGREKLASVPSGGGGGVAVASATSGGGGGGGASAAESKKEEKKEEKEESDDDMGFSLFE | binds
16 | CYS1 (protein, UniProt Q945Q1 1-101, N-acetyl-L-alanine (1)) MADQQAGTIVGGVRDIDANANDLQVESLARFAVDEHNKNENLTLEYKRLLGAKTQVVAGTMHHLTVEVADGETNKVYEAKVLEKAWENLKQLESFNHLHDV | binds
17 | DRT112, N-terminally processed (protein, UniProt P42699 69-167) IEVLLGGGDGSLAFIPNDFSIAKGEKIVFKNNAGYPHNVVFDEDEIPSGVDVAKISMDEQDLLNGAGETYEVALTEPGTYSFYCAPHQGAGMVGKVTVN | binds
18 | DSS1(V) (protein, UniProt Q9FL96 1-73, N-acetyl-L-alanine (1)) MAAEPKAAVEVVKVDLFEDDDEFEEFEINEDWLEKEEVKEVSLQWEDDWDDDDVSDDFSRQLKKELENASEKK | binds
19 | PAA2 (protein, UniProt O81147 1-246, N-acetyl-L-serine (1)) MSRGSGAGYDRHITIFSPEGRLFQVEYAFKAVKAAGITSIGVRGKDSVCVVTQKKVPDKLLDQSSVSHLFPVTKYLGLLATGMTADSRSLVQQARNEAAEFRFQYGYEMPADILAKWIADKSQVYTQHAYMRPLGVVAMVLGIDEERGPLLYKCDPAGHFYGHKATSAGMKEQEAVNFLEKKMKENPAFTYDETVQTAISALQSVLQEDFKATEIEVGVVRADDPLFRSLRTEEIDEHLTAISERD | binds
20 | PAA1 (protein, UniProt O81146 1-246, N-acetyl-L-serine (1)) MSRGSGAGYDRHITIFSPEGRLFQVEYAFKAVKTAGITSIGVRGKDSVCVVTQKKVPDKLLDQSSVTHLFPITKYIGLVATGITADARSLVQQARNQAAEFRFTYGYEMPVDILAKWIADKSQVYTQHAYMRPLGVVAMVMGVDEENGPLLYKCDPAGHFYGHKATSAGMKEQEAVNFLEKKMKENPSFTFDETVQTAISALQSVLQEDFKATEIEVGVVRAENPEFRALTTEEIEEHLTAISERD | binds
21 | PAE2 (protein, UniProt Q42134 1-237, N-acetyl-L-methionine (1)) MFLTRTEYDRGVNTFSPEGRLFQVEYAIEAIKLGSTAIGVKTKEGVVLAVEKRITSPLLEPSSVEKIMEIDDHIGCAMSGLIADARTLVEHARVETQNHRFSYGEPMTVESTTQALCDLALRFGEGEEESMSRPFGVSLLIAGHDENGPSLYYTDPSGTFWQCNAKAIGSGSEGADSSLQEQFNKDITLQEAETIAVSILKQVMEEKVTPNNVDIAKVAPAYHLYTPQEVEAVISRL | binds
22 | PAE1 (protein, UniProt O81149 1-237, N-acetyl-L-methionine (1)) MFLTRTEYDRGVNTFSPEGRLFQVEYAIEAIKLGSTAIGVKTKEGVVLAVEKRITSPLLEPSSVEKIMEIDDHIGCAMSGLIADARTLVEHARVETQNHRFSYGEPMTVESTTQALCDLALRFGEGEEESMSRPFGVSLLIAGHDENGPSLYYTDPSGTFWQCNAKAIGSGSEGADSSLQEQFNKDLSLQEAETIAVSILKQVMEEKVTPNNVDIAKVAPAYHLYTPQEVEAVIARL | binds
23 | PBD2 (protein, UniProt O24633 1-199, N-acetyl-L-methionine (1)) MECVFGLVGNGFAIVAADTSAVHSILLHKNKEDKIMTLDSHKLVAASGEPGDRVQFTEYVQKNVSLYQFRNGIPLSTAAAANFTRGELATALRKNPYSVNILMAGYDKEAGASLYYIDYIATLHKVDKGAFGYGSYFSLSTMDRHYRSDMSVEEAIELVDKCILEIRSRLVIAPPNFVIKIVDKDGAREYGWRISTADA | binds

— publication PMC3594244
